# From article doi:10.1101/2023.03.06.531428
# The chains behind the UniProt entries cited, without tags or fusion partners. Where a name states a change or a piece, a line headed by the entry shows the natural chain unless it says otherwise. Residues count along the entry.
# UniProt P01033, residues 24-207: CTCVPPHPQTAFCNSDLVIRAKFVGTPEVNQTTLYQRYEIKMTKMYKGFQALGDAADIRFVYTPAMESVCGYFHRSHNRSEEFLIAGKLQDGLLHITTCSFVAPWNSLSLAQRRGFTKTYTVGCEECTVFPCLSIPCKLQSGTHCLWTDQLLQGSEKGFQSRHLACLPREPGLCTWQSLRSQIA
# UniProt Q9UKP4: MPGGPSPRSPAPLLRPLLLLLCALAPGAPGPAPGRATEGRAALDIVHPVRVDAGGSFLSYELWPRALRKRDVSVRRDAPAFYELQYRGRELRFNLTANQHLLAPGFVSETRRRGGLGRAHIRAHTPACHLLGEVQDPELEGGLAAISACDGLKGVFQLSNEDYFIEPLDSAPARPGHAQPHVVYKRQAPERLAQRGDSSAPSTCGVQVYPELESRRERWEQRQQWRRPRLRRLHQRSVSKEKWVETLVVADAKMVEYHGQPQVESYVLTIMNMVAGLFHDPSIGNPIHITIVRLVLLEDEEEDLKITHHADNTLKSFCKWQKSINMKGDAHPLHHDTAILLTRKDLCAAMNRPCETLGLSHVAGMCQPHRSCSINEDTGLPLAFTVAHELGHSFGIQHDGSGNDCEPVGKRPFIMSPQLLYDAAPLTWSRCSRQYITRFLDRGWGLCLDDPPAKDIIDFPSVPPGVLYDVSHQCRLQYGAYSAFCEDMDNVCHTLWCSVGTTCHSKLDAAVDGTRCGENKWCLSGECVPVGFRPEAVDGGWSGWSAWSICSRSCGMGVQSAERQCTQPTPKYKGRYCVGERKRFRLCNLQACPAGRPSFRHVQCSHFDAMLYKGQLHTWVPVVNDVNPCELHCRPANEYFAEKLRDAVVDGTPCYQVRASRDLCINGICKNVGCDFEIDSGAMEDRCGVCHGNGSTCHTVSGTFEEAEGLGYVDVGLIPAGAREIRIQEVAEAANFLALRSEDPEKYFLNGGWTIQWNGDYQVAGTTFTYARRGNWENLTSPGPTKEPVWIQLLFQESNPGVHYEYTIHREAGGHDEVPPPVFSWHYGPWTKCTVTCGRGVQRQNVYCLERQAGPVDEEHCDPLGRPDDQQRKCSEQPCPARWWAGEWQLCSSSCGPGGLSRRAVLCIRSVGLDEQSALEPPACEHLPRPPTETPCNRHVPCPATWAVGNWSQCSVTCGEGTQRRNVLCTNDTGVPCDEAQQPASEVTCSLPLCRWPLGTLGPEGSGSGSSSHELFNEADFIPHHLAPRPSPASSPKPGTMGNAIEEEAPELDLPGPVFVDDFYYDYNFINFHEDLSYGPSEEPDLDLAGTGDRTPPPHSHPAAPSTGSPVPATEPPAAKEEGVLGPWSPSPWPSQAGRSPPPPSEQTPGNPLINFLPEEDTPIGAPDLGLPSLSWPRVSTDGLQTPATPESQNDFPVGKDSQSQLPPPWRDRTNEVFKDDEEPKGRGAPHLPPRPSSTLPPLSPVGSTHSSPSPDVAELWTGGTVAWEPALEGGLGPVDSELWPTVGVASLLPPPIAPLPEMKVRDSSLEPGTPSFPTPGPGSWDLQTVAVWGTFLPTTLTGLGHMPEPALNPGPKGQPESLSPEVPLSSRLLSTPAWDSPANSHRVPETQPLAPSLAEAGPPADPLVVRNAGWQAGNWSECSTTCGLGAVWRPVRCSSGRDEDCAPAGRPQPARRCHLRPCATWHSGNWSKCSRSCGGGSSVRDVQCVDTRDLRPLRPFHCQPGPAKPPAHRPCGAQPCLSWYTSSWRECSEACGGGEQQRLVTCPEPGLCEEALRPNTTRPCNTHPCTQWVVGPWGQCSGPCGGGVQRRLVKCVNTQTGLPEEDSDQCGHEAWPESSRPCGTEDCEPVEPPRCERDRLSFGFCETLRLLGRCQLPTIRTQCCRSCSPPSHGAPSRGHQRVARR
# No constants are given. Whether binding was seen depends on the method and setting. Binding calls can cover weak binding; strength is not graded here. For part of these data: Binding seen in cells or lysates may run through a third protein.
# What was measured:
# TIMP-1-HA (human) [1] = target: TIMP-1-HA (human) (UniProt P01033); assay: co-IP
# TIMP-1-HA (human) [2] = target: TIMP-1-HA (human) (UniProt P01033); assay: co-IP; remark: listed apart in the source
# TIMP-1-HA (human) [3] = target: TIMP-1-HA (human) (UniProt P01033); assay: AlphaScreen or HTRF
Substance,binding (TIMP-1-HA (human) [1]),binding (TIMP-1-HA (human) [2]),binding (TIMP-1-HA (human) [3])
full-length ADAMTS-7 containing a C-terminal V5-tag (ADAMTS7-V5) (from UniProt Q9UKP4) (enzyme),binds,binds,
ADAMTS-7-FLAG (from UniProt Q9UKP4) (enzyme),,,binds
